Here are results for 2 substances from patent US11332500B2 (BicycleTx Limited, priority 2019, dated 2022).

A short description of this data set: general procedure: Fmoc solid-phase peptide synthesis; Chlorotrityl resin (1.10 mmol/g); HBTU/DIEA. Conditions: conjugation step.

“Ac-SDKCSAGWLTMCQK[PYA]LHLCPSH (SEQ ID NO: 9; BCY10861) / [Ac]C[tBuAla]PE[dK]PYCFADPY[Nle]C[Dap(PYA)] (SEQ ID NO: 69; BCY11144)”: the conjugation yield is given as 34.62% yield and the “final purity (method not given)” value is on record as 94.54% purity.
For “Ac-SDKCSAGWLTMCQK[PYA]LHLCPSH (SEQ ID NO: 6; BCY10861) / [Ac]C[tBuAla]EE(dK)PYCFADPY[Nle]C[Dap(PYA)] (SEQ ID NO: 68; BCY12023)”, the conjugation yield is reported as 41.62% yield and the “final purity (method not given)” value was determined as 97.27% purity.
